Experimental data: paper doi:10.1101/2023.05.30.542914 (bioRxiv, 2023)
These are yes or no findings as the source states them, for the method shown. Binding seen in cells or lysates may run through a third protein. These calls come from enrichment with a bait or labelling near it, and not all partners need be listed. No binding means not detected with the bait. Tags and fused reporters may be left off the sequences shown.

T1: myc-tagged Wnt7a-BirA (UniProt O00755)
T1 sequence: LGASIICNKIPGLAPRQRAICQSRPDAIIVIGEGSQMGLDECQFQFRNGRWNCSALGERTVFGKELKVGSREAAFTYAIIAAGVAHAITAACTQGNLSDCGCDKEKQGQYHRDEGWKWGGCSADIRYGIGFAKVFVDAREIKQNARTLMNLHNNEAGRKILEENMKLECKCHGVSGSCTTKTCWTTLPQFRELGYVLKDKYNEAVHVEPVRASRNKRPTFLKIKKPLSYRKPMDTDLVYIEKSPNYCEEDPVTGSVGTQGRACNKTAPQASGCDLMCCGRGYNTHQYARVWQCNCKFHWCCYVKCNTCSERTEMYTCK

T2: myc-tagged EBP-BirA
T2 sequence: PVRASRNKRPTFLKIKKP

B1: WLS (protein, UniProt Q6DID7 1-541)
chain: MAGAIIENMSTKKLCIVGGILLVFQIVAFLVGGLIAPAPTTAVPYTAIKCVDVRKNHHKTRWLAPWGPNKCDKIRDIEEAIPREIEANDIVFSVHIPLPSMEMSPWFQFMLFILQLDIAFKLNNQIRENAEISMDVSLGYRDDMFSEWTEMAHERVPRKLKCTFTSPKTPEHEGRYYNCDVLPFMEIGSVAHKYYLLNIRLPVNEKKKINVGIGEIKDIRLVGIHQNGGFTKVWFAMKTFLTPSIFIIMVWYWRRITMMSRPPVLLEKVIFALGISMTFINIPVEWFSIGFDWTWMLLFGDIRQGIFYAMLLSFWIIFCGEHMMDQHERNHIAGYWKQVGPIAVGSFCLFIFDMCERGVQLTNPFYSIWTTDVGTELAMAFIIVAGICLCLYFLFLCFMVFQVFRNISGKQSSLPAMSKVRRLHYEGLIFRFKFLMLITLACAAMTVIFFIVSQVSEGHWKWGGVTVQVSSAFFTGIYGMWNLYVFALMFLYAPSHKNYGEDQSNGDLGVHSGEELQLTTTITHVDGPTEIYKLTRKEAQE
B2: COPA (mouse) (protein, UniProt Q8CIE6)
chain: MLTKFETKSARVKGLSFHPKRPWILTSLHNGVIQLWDYRMCTLIDKFDEHDGPVRGIDFHKQQPLFVSGGDDYKIKVWNYKLRRCLFTLLGHLDYIRTTFFHHEYPWILSASDDQTIRVWNWQSRTCVCVLTGHNHYVMCAQFHPSEDLVVSASLDQTVRVWDISGLRKKNLSPGAVESDVRGITGVDLFGTTDAVVKHVLEGHDRGVNWAAFHPTMPLIVSGADDRQVKIWRMNESKAWEVDTCRGHYNNVSCAVFHPRQELILSNSEDKSIRVWDMSKRTGVQTFRRDHDRFWVLAAHPNLNLFAAGHDGGMIVFKLERERPAYAVHGNMLHYVKDRFLRQLDFNSSKDVAVMQLRSGSKFPVFNMSYNPAENAVLLCTRASNLENSTYDLYTIPKDADSQNPDAPEGKRSSGLTAVWVARNRFAVLDRMHSLLIKNLKNEITKKIQVPNCDEIFYAGTGNLLLRDADSITLFDVQQKRTLASVKISKVKYVIWSADMSHVALLAKHAIVICNRKLDALCNIHENIRVKSGAWDESGVFIYTTSNHIKYAVTTGDHGIIRTLDLPIYVTRVKGNNVYCLDRECRPRVLTIDPTEFKFKLALINRKYDEVLHMVRNAKLVGQSIIAYLQKKGYPEVALHFVKDEKTRFSLALECGNIEIALEAAKALDDKNCWEKLGEVALLQGNHQIVEMCYQRTKNFDKLSFLYLITGNLEKLRKMMKIAEIRKDMSGHYQNALYLGDVSERVRILKNCGQKSLAYLSAATHGLDEEAESLKETFDPEKETIPDIDPNAKLLQPPAPIMPLDTNWPLLTVSKGFFEGSIASKGKGGALAADIDIDTVGTEGWGEDAELQLDEDGFVEAPEGLGEDVLGKGQEEGGGWDVEEDLELPPELDVPSGVSGSAEDGFFVPPTKGTSPTQIWCNNSQLPVDHILAGSFETAMRLLHDQVGVIQFGPYKQLFLQTYARGRTTYQALPCLPSMYSYPNRNWKDAGLKNGVPAVGLKLNDLIQRLQLCYQLTTVGKFEEAVEKFRSILLSVPLLVVDNKQEIAEAQQLITICREYIVGLCMEIERKKLPKETLDQQKRICEMAAYFTHSNLQPVHMILVLRTALNLFFKLKNFKTAATFARRLLELGPKPEVAQQTRKILSACEKNPTDACQLNYDMHNPFDICAASYRPIYRGKPVEKCPLSGACYSPEFKGQICRVTTVTEIGKDVIGLRISPLQFR
B3: COPB2 (mouse) (protein, UniProt O55029 1-905)
chain: MPLRLDIKRKLTARSDRVKSVDLHPTEPWMLASLYNGSVCVWNHETQTLVKTFEVCDLPVRAAKFVARKNWVVTGADDMQIRVFNYNTLERVHMFEAHSDYIRCIAVHPTQPFILTSSDDMLIKLWDWDKKWSCSQVFEGHTHYVMQIVINPKDNNQFASASLDRTIKVWQLGSSSPNFTLEGHEKGVNCIDYYSGGDKPYLISGADDRLVKIWDYQNKTCVQTLEGHAQNVSCASFHPELPIIITGSEDGTVRIWHSSTYRLESTLNYGMERVWCVASLRGSNNVALGYDEGSIIVKLGREEPAMSMDANGKIIWAKHSEVQQANLKAMGDTEIKDGERLPLAVKDMGSCEIYPQTIQHNPNGRFVVVCGDGEYIIYTAMALRNKSFGSAQEFAWAHDSSEYAIRESNSIVKIFKNFKEKKSFKPDFGAESIYGGFLLGVRSVNGLAFYDWENTELIRRIEIQPKHIFWSDSGELVCIATEESFFILKYLSEKVLAAQETHEGVTEDGIEDAFEVLGEIQEIVKTGLWVGDCFIYTSSVNRLNYYVGGEIVTIAHLDRTMYLLGYIPKDNRLYLGDKELNIVSYSLLVSVLEYQTAVMRRDFSMADKVLPTIPKEQRTRVAHFLEKQGFKQQALTVSTDPEHRFELALQLGELKIAYQLAVEAESEQKWKQLAELAISKCQFSLAQECLHHAQDYGGLLLLATASGNASMVNKLAEGAERDGKNNVAFMSYFLQGKLDACLELLIRTGRLPEAAFLARTYLPSQVSRVVKLWRENLSKVNQKAAESLADPTEYENLFPGLKEAFVVEEWVKETHADLWPAKQYPLVTPNEERNVMEEAKGFQPSRPTAQQEPDGKPASSPVIMASQTTHKEEKSLLELEVDLDNLELEDIDTTDINLDEDILDD
B4: Reck (receptor, UniProt Q9Z0J1 23-942)
chain: EVTGGLAPGSAGAVCCNHSKDNQMCRDVCEQIFSSKSESRLKHLLQRAPDYCPETMVEIWSCMNSSLPGVFKKSDGWVGLGCCELAIGLECRQACKQASSKNDISKVCRKEYENALFSCISRNEMGSVCCSYAGHHTNCREFCQAIFRTDSSPGPSQIKAVENYCASISPQLIHCVNNYTQSYPMRNPTDSLYCCDRAEDHACQNACKRILMSKKTEMEIVDGLIEGCKTQPLPQDPLWQCFLESSQSVHPGVTVHPPPSTGLDGAKLHCCSKANTSTCRELCTKLYSMSWGNTQSWQEFDRICEYNPVEVSMLTCLADVREPCQLGCTNLTYCTNFNNRPTELFRSCTAQSDQGAMSDMKLWEKGSIKMPFISIPVLDIKTCQPEMWKAVACSLQIKPCHSKSRGSIICKSDCVEILKKCGDQNKFPEEHTAESICEFLSPADDLESCIPLDTYLRPSALGNIIEEVTHPCNPNPCPANELCEVNRKGCPSADPCLPYSCVQGCKLGEASDFIVRQGTLIQVPSSAGEVGCYKICSCGQSGLLENCMEMHCIDLQKSCIVGGKRKSHGTSFTIDCNVCSCFAGNLVCSTRLCLSEHSSDDDRRTFTGLPCNCADQFVPVCAQNGRTYPSACIARCVGLQDHQFEFGPCISKNPCNPNLCPKSQRCVPKPQVCLTTFDKFGCSQYECVPRQLTCDQARDPVCDTDHMEHSNLCTLYQRGKSLSYRGPCQPFCRAKEPVCGHNGETYSSVCAAYSDRVAVDYYGPCQAVGVLSEYSAVAECAAVKCPSLSAIGCKPIIPPGACCPLCAGMLRVLFDKEKLDTIAKVTSKKPITVVEILQKVRMHVSVPQCDVFGYLSIESEIVILIIPVDHYPKALQIEACNKEAEKIESLINSDSPTLASHVPLSALIISQVQVSSSLPS

Assays:
myc-tagged Wnt7a-BirA = target: T1, myc-tagged Wnt7a-BirA; assay: proximity labelling
myc-tagged EBP-BirA = target: T2, myc-tagged EBP-BirA; assay: proximity labelling

Row | Binder | binding (myc-tagged Wnt7a-BirA) | binding (myc-tagged EBP-BirA)
1 | B1 | no binding | –
2 | B2 | binds | binds
3 | B3 | binds | binds
4 | B4 | no binding | no binding
